Measured data: PubChem BioAssay AID686937 (Drosophila RNAi Screening Center, 2013)

- Screen: 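Genes in the fly needed for secretion of protein constitutively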 (primary screen)
- System: Drosophila S2 cells expressing secreted horseradish peroxidase
- Reagents: long dsRNA against Drosophila genes
- Time to read-out: about 5.5 days (5 days dsRNA, then 12 h reporter induction)
- Treatment: reporter expression induced after 5 days of dsRNA, read 12 h later; inducer not stated
- Measurement: 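Chemiluminescent measurement of peroxidase in the medium 12 h after reporter induction, following 5 days of dsRNA, given as a z-score per plate; higher means more secretion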
- Scale: z-score: higher = more reporter secreted into medium
The deposit covers about 23,000 reagents; this is an unselected part of those that have a named target and a result. 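Reduced-secretion tags in replicate 1 do not always agree with the z-scores; no criterion for assigning the tags was given.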 A plus sign joins genes that one reagent is predicted to hit. The record does not give: the amount of reagent.

target gene	DRSC id	z-score, replicate 1	z-score, replicate 2	z-score, replicate 3	z-score, replicate 4	phenotype, replicate 1
CG14302	DRSC14781	0.42	0.46			
zip (zipper)	DRSC04725	0.4	0.27	-0.04	0.36	
zip (zipper)	DRSC22489	-0.27	0.66			
CG30423	DRSC04013	0.15				
CG34450	DRSC17822	0.44	0.38			
CG4269	DRSC04457	0.45	0.16			
CG12951	DRSC14579	0.56	-0.02			
Alp7 (Alkaline phosphatase 7)	DRSC04355	-0.12	-0.09			
E5	DRSC13000	-1.32	-0.54			
E5	DRSC16585	-1.82	-1.97			reduced secretion
Mnat9 (microtubule-associated Nat9)	DRSC14325	0.46	0.27			
Tango11 (Transport and Golgi organization 11)	DRSC03890	-1.88	-1.15			reduced secretion
Tango11 (Transport and Golgi organization 11)	DRSC03892	-0.03	0.21			
Atg8a (Autophagy-related 8a)	DRSC18024	0.34	0.65			
CG8861	DRSC12731	-0.41	-0.06			
CG8861	DRSC16449	0.34	0.28			
CG9485	DRSC04557	0.14	0.18			
CG3330	DRSC15477	0.41	0.56			
CG4259	DRSC00645	0.15	0.16			
w-cup (world cup)	DRSC03048	0.1	0.36			
CG8745	DRSC11033	0.41	0.36			
CG8745	DRSC11034	0.49	-0.18			
CG8745	DRSC22741	0.69	-0.1			
CG14286	DRSC14767	0.42	0.28			
CG13950	DRSC00368	0.31	0.24			
CG4291	DRSC00650	0.15	0.48			
faf (fat facets)	DRSC16942	0.47	0.39			
Pitslre	DRSC11874	-3.15	-2.06			reduced secretion
CG42514	DRSC10428	0.39	0.26			
CG8065	DRSC10959	-0.08	0.12			
CG4424	DRSC15576	0.17	0.36			
CycB (Cyclin B)	DRSC04605	0.27	0.32			
CG13557	DRSC04195	-0.01	0.33			
dmrt93B (doublesex-Mab related 93B)	DRSC15865	0.32	0.44			
Ercc1	DRSC07424	-0.36	-1.29			
CG32201	DRSC22452	-0.12	0.12			
CG9380	DRSC04549	0.52	0.16			
UQCR-6.4 (Ubiquinol-cytochrome c reductase 6.4 kDa subunit)	DRSC06454	0.36	0.19			
Osi13 (Osiris 13)	DRSC12281	0.43	0.04			
CG5265	DRSC15756	-0.04	-0.33			
CG6321	DRSC10623	0.2	0.16			
Vps51 (Vacuolar protein sorting 51)	DRSC06519	0.04	0.3			
CG12546 + CG14452	DRSC11709	0.27	0.14			
beat-VI (beaten path VI)	DRSC14474	0.29	0.32			
beat-VI (beaten path VI)	DRSC14727	0.29	-0.06			
CG12857	DRSC06197	0.24	0.25			
Scr (Sex combs reduced)	DRSC12604	-1.47	-2.7			
CG5646	DRSC15853	0.4	0.35			
CG31323	DRSC14901	0.37	0.25			
COX2 (retired record)	DRSC21276	0.61	0.36			
Spindly	DRSC00430	-0.91	-0.63			
hec (hector)	DRSC19895	0.39	0.4			
CG15465	DRSC18048	0.46	0.59			
CG33475	DRSC22943	-0.84	-0.39			
CG13978	DRSC14720	0.4	0.42			
Nlg1 (Neuroligin 1)	DRSC12485	0.17	0.4			
Nlg1 (Neuroligin 1)	DRSC12532	-0.01	-0.31			
Nlg1 (Neuroligin 1)	DRSC12533	-0.12	0.4			
Nlg1 (Neuroligin 1)	DRSC12539	0.09	0.33			
CG7133	DRSC11798	0.21	0.24			
slx1 (nuclease slx1)	DRSC12290	0.32	0.21			
Hsp60B (Heat shock protein 60B)	DRSC00542	0.17	0.48			
Tmtc4 (Transmembrane O-mannosyltransferase targeting cadherins 4)	DRSC15702	0.12	0			
CG11617	DRSC00321	0.39	0.06			
CG11617	DRSC21786	-0.47	0.71			
S-Lap5 (Sperm-Leucylaminopeptidase 5)	DRSC06732	0.46	0.26			
cass (cassowary)	DRSC01850	0.03	-0.07			
CG42729	DRSC10236	0.24	0.12			
CG16800	DRSC02518	-0.56	-0.17			
CG31522	DRSC12005	0.36	0.02			
Exd2 (Exonuclease 3'-5' domain-containing 2)	DRSC16105	0.11	0.46			
Pkc53E (Protein C kinase 53E)	DRSC05636	0.21	0.19			
Pkc53E (Protein C kinase 53E)	DRSC07510	0.33	0.5			
CG2209	DRSC19843	0.33	-1.47			
Osi20 (Osiris 20)	DRSC12568	0.5	0.52			
Snrk (SNF related kinase)	DRSC07192	0.28	0.26			
Prx1 (Peroxiredoxin 1)	DRSC10741	-0.07	0.01			
Ctr9	DRSC08562	0.4	0.25			
Ntan1 (N-terminal amidohydrolase 1)	DRSC07546	0.34	0.38			
CR6900 (pseudo)	DRSC20018	0.31	0.45			
CG7102	DRSC02647	0.28	0.26			
CG7102	DRSC03007	0.7	0.48			
